According to article PMC9723619:
Results are given in words; binding and its absence hold for the method and conditions named. Some results given as binding are weak or reduced against the parent protein; the word gives no strength. For some assays here: Sequences can lack the tags named with a protein. Values belong to the binder of their own block, whether it stands above or below them.

Key:
Assay in all cases: cryo-EM structure; human pre-40S particles purified on anti-Flag beads from HEK Flp-In 293 T-Rex cells (baits SLX9, RIOK1 D324A, BYSL); states UTP14, RRP12-A and RRP12-B
[1] = target: T1, RRP12 (human) (human (endogenous in HEK Flp-In 293 T-Rex)) (UniProt Q5JTH9)
T1 sequence: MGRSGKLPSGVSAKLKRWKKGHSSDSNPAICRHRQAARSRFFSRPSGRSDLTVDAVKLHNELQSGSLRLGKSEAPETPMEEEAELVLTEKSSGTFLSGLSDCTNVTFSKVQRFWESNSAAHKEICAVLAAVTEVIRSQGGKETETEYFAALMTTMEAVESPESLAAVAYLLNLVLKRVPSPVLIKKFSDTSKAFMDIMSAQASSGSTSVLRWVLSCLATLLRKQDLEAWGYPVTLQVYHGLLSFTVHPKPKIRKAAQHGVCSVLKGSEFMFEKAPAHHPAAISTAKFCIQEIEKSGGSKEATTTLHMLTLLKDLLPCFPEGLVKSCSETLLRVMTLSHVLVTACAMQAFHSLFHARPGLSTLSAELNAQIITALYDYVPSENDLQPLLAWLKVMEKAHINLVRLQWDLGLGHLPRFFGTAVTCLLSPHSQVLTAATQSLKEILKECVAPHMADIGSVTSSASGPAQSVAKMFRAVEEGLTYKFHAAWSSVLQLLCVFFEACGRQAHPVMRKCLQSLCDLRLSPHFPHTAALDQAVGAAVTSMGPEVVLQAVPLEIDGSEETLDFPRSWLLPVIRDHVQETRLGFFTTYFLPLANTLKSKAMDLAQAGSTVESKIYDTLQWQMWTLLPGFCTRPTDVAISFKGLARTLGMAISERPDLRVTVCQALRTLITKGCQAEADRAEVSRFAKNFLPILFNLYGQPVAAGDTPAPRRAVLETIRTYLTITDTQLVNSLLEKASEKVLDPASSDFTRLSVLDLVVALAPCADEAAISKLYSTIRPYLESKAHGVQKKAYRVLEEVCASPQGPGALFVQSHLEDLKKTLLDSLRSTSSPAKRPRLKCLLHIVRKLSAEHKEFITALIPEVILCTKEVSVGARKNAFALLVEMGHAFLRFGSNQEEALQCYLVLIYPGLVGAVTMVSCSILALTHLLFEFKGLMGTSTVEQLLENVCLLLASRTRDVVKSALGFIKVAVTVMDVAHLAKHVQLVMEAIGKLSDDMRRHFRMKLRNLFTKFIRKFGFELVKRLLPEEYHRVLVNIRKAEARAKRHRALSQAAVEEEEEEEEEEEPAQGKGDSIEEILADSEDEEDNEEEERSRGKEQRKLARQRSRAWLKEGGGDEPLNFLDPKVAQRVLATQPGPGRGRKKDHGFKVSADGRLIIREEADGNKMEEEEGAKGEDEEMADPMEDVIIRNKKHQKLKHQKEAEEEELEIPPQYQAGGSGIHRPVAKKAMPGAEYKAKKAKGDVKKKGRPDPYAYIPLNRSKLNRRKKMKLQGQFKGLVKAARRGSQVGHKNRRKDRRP

[2] = target: PNO1 (human) (human (endogenous in HEK Flp-In 293 T-Rex)), Q9NRX1; settings: remark: other sources report otherwise
[3] = target: T2, BUD23 (human) (human (endogenous in HEK Flp-In 293 T-Rex)) (UniProt O43709)
T2 sequence: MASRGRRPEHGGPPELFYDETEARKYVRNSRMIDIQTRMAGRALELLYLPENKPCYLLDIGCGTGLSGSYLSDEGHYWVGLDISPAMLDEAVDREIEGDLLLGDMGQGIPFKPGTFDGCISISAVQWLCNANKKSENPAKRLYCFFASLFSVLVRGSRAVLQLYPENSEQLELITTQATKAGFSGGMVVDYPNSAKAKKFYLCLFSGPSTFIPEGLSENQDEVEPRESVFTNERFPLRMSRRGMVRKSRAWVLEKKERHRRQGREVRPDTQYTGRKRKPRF

binding [1]: binds
B1: BUD23 (human) (enzyme, UniProt O43709 1-281)
chain: T2 sequence

binding [1]: binds
B2: SLX9 (human), N-terminal Strep-Flag-3C tagged (protein, UniProt Q9NSI2 1-230)
chain: MGKVRGLRARVHQAAVRPKGEAAPGPAPPAPEATPPPASAAGKDWAFINTNIFARTKIDPSALVQKLELDVRSVTSVRRGEAGSSARSVPSIRRGAEAKTVLPKKEKMKLRREQWLQKIEAIKLAEQKHREERRRRATVVVGDLHPLRDALPELLGLEAGSRRQARSRESNKPRPSELSRMSAAQRQQLLEEERTRFQELLASPAYRASPLVAIGQTLARQMQLEDGGQL

binding [1]: binds
B3: BYSL (human) (protein, UniProt Q13895 1-437)
chain: MPKFKAARGVGGQEKHAPLADQILAGNAVRAGVREKRRGRGTGEAEEEYVGPRLSRRILQQARQQQEELEAEHGTGDKPAAPRERTTRLGPRMPQDGSDDEDEEWPTLEKAATMTAAGHHAEVVVDPEDERAIEMFMNKNPPARRTLADIIMEKLTEKQTEVETVMSEVSGFPMPQLDPRVLEVYRGVREVLSKYRSGKLPKAFKIIPALSNWEQILYVTEPEAWTAAAMYQATRIFASNLKERMAQRFYNLVLLPRVRDDVAEYKRLNFHLYMALKKALFKPGAWFKGILIPLCESGTCTLREAIIVGSIITKCSIPVLHSSAAMLKIAEMEYSGANSIFLRLLLDKKYALPYRVLDALVFHFLGFRTEKRELPVLWHQCLLTLVQRYKADLATDQKEALLELLRLQPHPQLSPEIRRELQSAVPRDVEDVPITVE

binding [2]: binds
B4: BYSL (human), Q13895 1-437 (protein)
chain: B3 chain

binding [3]: binds
B5: TRMT112 (human) (protein, UniProt Q9UI30 1-125)
chain: MKLLTHNLLSSHVRGVGSRGFPLRLQATEVRICPVEFNPNFVARMIPKVEWSAFLEAADNLRLIQVPKGPVEGYEENEEFLRTMHHLLLEVEVIEGTLQCPESGRMFPISRGIPNMLLSEEETES
